From PubChem BioAssay AID2685 (National Center for Advancing Translational Sciences (NCATS), 2010) come the findings set out here.

The list shows a part of the results. These are further read-outs of the screen, such as a control signal, another cell line or another target. No call is given for them. Compounds called inactive in the main read-out are mostly missing here. The note in brackets gives the kind of curve behind each potency; many fits are weak.

The nature of the assay: qHTS Assay for Lipid Storage Modulators in Drosophila S3 Cells.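 For cell number change: cells counted by Cell Tracker Red CMTPX staining in the red channel.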 The settings on record: BODIPY lipid droplet fluorescence, 18-24 h; for cell number change: measured here: cell count max response, cells fed with added oleic acid. Summed up:
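Drosophila S3 cells loaded with oleic acid (400 uM, as added) and compounds at several concentrations; lipid droplets imaged by 488-nm laser-scanning cytometry, 500–530 nm intensity and object ratio to cell channel. Percent activity normalized to 20 uM Triacsin C.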
For orientation: In qHTS, concentration-response curves come from the screen itself.

Setting [1] is: measured here: cell number channel AC50, cells fed with added oleic acid.
Where [2] appears, read: measured here: lipid fluorescence (Fed channel) AC50, cells fed with added oleic acid.

Usually AC50 stands for the midpoint of the concentration-response curve, whichever way the signal moves. A lower AC50 goes with activity at low concentration.

Turning to `COc1ccc(C(=O)OCCCN(C)C)cc1OC`, the cell number change came out at 6.58%.

As for `COc1ccc2nc(C)c(C(=O)NN)cc2c1`, the cell number change was found to be 33.5%.

`Cc1ccc(C(=O)Nn2cnc3scc(-c4cccs4)c3c2=O)c(O)c1`: the cell number change is -11.5%. Also, the AC50 under setting [1] is 0.92 µM [falling, full curve, poor fit].

On to `CCC(C)(C)NC(=O)c1ccc2c(c1)S(=O)(=O)c1ccccc1C2=O`, for which the cell number change was -16.6%. In addition, the AC50 under setting [2] is 0.82 µM [falling, full curve, poor fit].

For `COCCn1c(SCC(=O)Nc2ccc(Cl)cn2)nc2ccccc21`, the AC50 was 1.64 µM [rising, partial curve] under setting [1] and 2.06 µM [rising, partial curve] under setting [2].

For `CC(OC(=O)/C=C/c1cccs1)C(=O)NC1CCCCC1C` (stereo unspecified), the cell number change amounted to 19.1%.

In the case of `COCCCn1c(=O)c2ccccc2n(CC(=O)N2CCCc3ccccc32)c1=O`, the cell number change is 1.28%.

For `C=CCOc1ccccc1CNc1ccccc1C`, the cell number change came out at 78.7%. In addition, the AC50 under setting [1] is 29.1 µM [rising, single point]. Moreover, under setting [2], the AC50 was 20.6 µM [rising, single point].

For `CCCN(CC(=O)Nc1ccccc1C)C(=O)COC(=O)CSc1ccc([N+](=O)[O-])cc1`, the cell number change is 34.5%. For the same molecule, under setting [1], the AC50 was 0.651 µM [rising, partial curve].

Take `CCc1ccc(/C=C2\SC(=S)N(CCC(=O)N3CCN(C)CC3)C2=O)cc1`: the cell number change amounted to 36%. Moreover, the half-maximal activity concentration (AC50) under setting [1] is 7.31 µM [rising, partial curve]. Besides, the AC50 under setting [2] was 4.61 µM [rising, full curve].

With `CCOc1ccc(NC(=O)CC2C(=O)N(C)C(=S)N2Cc2ccc3c(c2)OCO3)cc1` (stereo unspecified), the cell number change is -29%. For the same molecule, under setting [2], the AC50 was 32.6 µM [falling, single point].

Consider `OCCN(Cc1ccccc1)CC(O)COc1ccc2c(c1)OCO2` (stereo unspecified), for which the cell number change is 40.5%. In addition, under setting [1], the AC50 was 23.1 µM [rising, single point].

`CCN(CC)S(=O)(=O)c1cccc(C(=O)N[C@H](C(=O)NCc2ccccc2F)C(C)C)c1`: the cell number change came to 38.6%. Besides, the AC50 under setting [1] is 7.31 µM [rising, partial curve].

As for `O=C(O)CCCC(=O)N1CCc2cc(S(=O)(=O)N3CCc4ccccc43)ccc21`, the AC50 under setting [2] is 1.84 µM [rising, full curve, poor fit].

As for `C=CCOc1c(Cl)cc(CNc2ccc(C)c(Cl)c2)cc1OC`, the cell number change was -19.2%.

Take `COc1ccc(C=O)cc1COc1ccc(C)cc1[N+](=O)[O-]`: the AC50 is 6.51 µM [rising, single point] under setting [1] and 8.2 µM [rising, single point] under setting [2].

For `COc1ccccc1NC(=O)c1cnc(SCC(=O)NCC2CCCO2)n(C)c1=O` (stereo unspecified), the cell number change was 80.5%. The AC50 under setting [1] was 13 µM [rising, partial curve].

On to `COc1ccc(N2CCN(C(=O)c3ccc(C)cc3)CC2)c([N+](=O)[O-])c1`, for which the cell number change worked out at 23%. In addition, under setting [2], the AC50 is 29.1 µM [rising, partial curve, poor fit].

With `COc1ccccc1C(=O)NNC1=NS(=O)(=O)c2ccccc21`, the cell number change is -8.03%.

For the molecule `CCCc1cc(-c2n[nH]c(=S)n2-c2cccc(C)c2)cs1`, the cell number change is 20%. Moreover, the half-maximal activity concentration (AC50) under setting [2] is 32.6 µM [falling, partial curve, poor fit].

With `N#Cc1c2n(c3c(-c4ccccc4)ncnc13)CCC2`, the cell number change is 2.74%.

For the molecule `COc1ccc(-c2cn3cc(C)ccc3n2)cc1OC`, the cell number change came out at 104%. For the same molecule, the AC50 under setting [1] was 4.61 µM [falling, single point].

Regarding `Oc1ccccc1-c1cc(C(F)(F)F)nc(-c2ccccc2)n1`, the cell number change amounted to 7.96%. Also, the AC50 under setting [2] was 32.6 µM [rising, single point].

On to `Cc1cccc(N/C=C(\[N+](=O)[O-])S(=O)(=O)c2ccccc2)c1`, for which the cell number change is 60.7%.

Consider `CSc1nsc(SC)c1NC(=O)OCC1CCCO1` (stereo unspecified), for which the cell number change turned out to be 192%. Besides, the half-maximal activity concentration (AC50) under setting [1] is 14.6 µM [rising, partial curve]. Also, the half-maximal activity concentration (AC50) under setting [2] is 20.6 µM [rising, partial curve].

Regarding `CC(C)n1cc(-c2nc(C(=O)NN)cs2)c(=O)n(Cc2ccccc2)c1=O`, the cell number change is -1.19%. The AC50 under setting [2] is 0.517 µM [rising, full curve, poor fit].

As to `COC(=O)c1cc(=O)c2ccc(OC)cc2o1`, the cell number change stood at 1.24%. In addition, the AC50 under setting [1] was 7.31 µM [falling, partial curve, poor fit]. Under setting [2], the half-maximal activity concentration (AC50) is 0.0259 µM [falling, full curve, poor fit].

As for `O=C(CC(Sc1ccccc1)c1cccs1)c1ccco1` (stereo unspecified), the cell number change was -22.9%. The AC50 under setting [2] was 32.6 µM [falling, partial curve, poor fit].

With `O=C(COC(=O)c1ccccc1O)Nc1cc(S(=O)(=O)N2CCCCCC2)ccc1Cl`, the cell number change was -25%.

For `COc1ccc(/C=N/NC(=O)c2c(-c3ccccc3)noc2C)cc1`, the cell number change was 0.689%. Under setting [1], the AC50 is 8.2 µM [rising, single point]. Also, the AC50 under setting [2] is 8.2 µM [rising, partial curve, poor fit].

Consider `N#CCCN(Cc1cccnc1)C(=S)Nc1ccc(OC(F)F)cc1`, for which the cell number change is -32%. Further, under setting [2], the AC50 is 5.17 µM [falling, partial curve].

Turning to `COc1cc(CNCc2ccccc2)c(Br)cc1OC1CCCC1`, the cell number change is -48.9%. Further, under setting [1], the concentration at half-maximal activity (AC50) is 15.8 µM [falling, single point]. Besides, the half-maximal activity concentration (AC50) under setting [2] is 14.1 µM [falling, single point].

`O=c1[nH]c2c(c3c1CCCC3)CCCC2`: the cell number change came out at 2.18%. In addition, under setting [1], the AC50 is 0.517 µM [falling, full curve, poor fit].

In the case of `CC1(C)Cc2c(c(N3CCCC3)nc3sc(C(=O)Nc4ccccc4)c(N)c23)CO1`, the cell number change was -7.08%. Besides, under setting [2], the AC50 was 6.51 µM [rising, single point].

For the molecule `COc1ccc([C@H]2CC(=O)C=C(c3cccc4c3sc3ccccc34)C2)cc1OC`, the cell number change is -27.6%.

As to `C=CCn1c(SCc2ccc(Cl)cc2)nc2cc(C(=O)N3CCC(C(N)=O)CC3)ccc2c1=O`, the cell number change was found to be 46.7%. Also, the AC50 under setting [1] was 10.3 µM [rising, single point]. Besides, the concentration at half-maximal activity (AC50) under setting [2] is 20.6 µM [rising, partial curve].

`CC(NC(=O)C1CCC(=O)N1Cc1ccc(F)cc1)c1ccc2c(c1)OCCO2` (stereo unspecified): the cell number change is -1.01%. Besides, the AC50 under setting [2] is 2.91 µM [rising, single point].

Turning to `COCCNc1ccc([N+](=O)[O-])cc1C(=O)Nc1cccc(C)n1`, the cell number change was -12.3%.

In the case of `CCOC(=O)c1sc2nc(SCC#N)n(CC3CCCO3)c(=O)c2c1C` (stereo unspecified), the AC50 by setting is: under setting [1], 6.51 µM [rising, partial curve, poor fit]; under setting [2], 6.51 µM [rising, single point].

For the molecule `C/C(=C\C(=O)c1ccc(C)o1)Nc1ccc(C(=O)O)cc1C`, the cell number change is -5.08%. The AC50 under setting [1] is 2.31 µM [falling, partial curve]. The AC50 under setting [2] was 11.6 µM [falling, partial curve].
